Measured values as given in the supplement of paper PMC3334620.
In all, about 33,000 sequences were measured (“E-score (-0.5 to 0.5)”: median about -0.015, highest 2% from about 0.3 on). The list shows a part of the results.

biological target: T1, Abf1 (UniProt P14164); test: PBM E-score (8-mer binding enrichment) (E-score (-0.5 to 0.5)); higher = stronger / more preferred TF binding; conditions: protein concentration: 200 nM; construct: GST-full length
T1 sequence: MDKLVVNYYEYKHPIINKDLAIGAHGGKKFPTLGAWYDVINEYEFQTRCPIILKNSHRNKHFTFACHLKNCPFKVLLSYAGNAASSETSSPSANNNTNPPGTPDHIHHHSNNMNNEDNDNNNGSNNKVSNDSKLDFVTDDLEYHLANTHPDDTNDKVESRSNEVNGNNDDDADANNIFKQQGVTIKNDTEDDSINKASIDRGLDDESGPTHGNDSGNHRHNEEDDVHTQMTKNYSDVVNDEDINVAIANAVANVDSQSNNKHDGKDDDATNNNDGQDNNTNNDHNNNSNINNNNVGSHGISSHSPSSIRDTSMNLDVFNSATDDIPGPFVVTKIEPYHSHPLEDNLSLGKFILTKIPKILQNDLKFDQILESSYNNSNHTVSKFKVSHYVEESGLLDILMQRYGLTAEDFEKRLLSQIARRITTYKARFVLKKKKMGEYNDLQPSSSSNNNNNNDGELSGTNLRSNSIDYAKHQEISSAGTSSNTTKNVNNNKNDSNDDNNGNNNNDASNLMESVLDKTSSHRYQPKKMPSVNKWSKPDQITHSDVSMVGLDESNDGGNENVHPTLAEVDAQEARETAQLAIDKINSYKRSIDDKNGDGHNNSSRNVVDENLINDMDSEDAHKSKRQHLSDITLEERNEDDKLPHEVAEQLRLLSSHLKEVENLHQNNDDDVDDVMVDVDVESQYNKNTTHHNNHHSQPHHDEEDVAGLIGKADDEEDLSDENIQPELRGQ
Outline: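 For each ungapped eight-base word taken together with its reverse complement, the Universal PBM Analysis Suite assigned an E-score. Binding data came from GST-tagged yeast transcription factors, applied at about 100-200 nM, on universal all-10-mer Agilent arrays made double-stranded by primer extension. Fluorescent anti-GST marked bound protein, and scans were normalised with masliner.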

Sequence	PBM E-score
ATCGCAAA	0.0945
GAGCACTA	0.0823
GCGCTGGA	-0.338
TATTGCCA	-0.104
ATTCGCTC	0.0285
CGAAGTCA	0.2
GCTAATCA	0.142
AAGATGGA	0.0911
GCTGCCCA	-0.162
AGCGTTGG	-0.0424
GATGTTCC	-0.0259
ACAGCTCC	-0.172
ATTCGTAC	0.408
AAGAGATA	0.0962
TACAATCA	0.0982
AAATGTAG	0.122
AATCTTGT	0.147
GTCGCAGA	0.112
ACCCTCCC	-0.139
CCATTTGA	-0.0559
CGTGCTAA	0.214
GATCGACA	0.013

Sequence	PBM E-score
ACGTCAAC	0.0554
AACGAAGG	-0.0556
CTTCAGTC	-0.07
TCTTCGCA	0.00277
TACTCCAA	-0.0006
GATCAGGC	-0.176
ATTGAGTG	-0.00414
TCCAAGGA	-0.181
AGTCTAGA	-0.087
CCTTCAGC	-0.112
CCGCGGAG	-0.166
CAGACATA	-0.0847
ATACATCA	0.158
AAACGGCA	0.213
ACTAGCGA	0.216
GTCTTCAA	-0.0175
CAGAGGTA	-0.128
GATGCCGC	-0.168
GGATCCAC	-0.0994
GGGCTCAA	-0.161
AATTCGCA	-0.0529
CTAACACC	-0.0811

Sequence	PBM E-score
CGAGCTCG	0.286
GGCGTAGA	-0.107
CGCGTAGC	0.0138
CCCTACGG	0.185
GATCACGA	0.301
ATACTCGC	0.127
CTAGAATA	0.0856
GACACTAC	-0.0654
CATGGTTA	0.0529
CGAACCCA	0.0711
AAACTCTC	0.0963
AGCCTCAT	-0.176
ATCTCATC	0.187
AAGGACTT	-0.181
CGCCACCG	-0.0617
CAAATCCA	-0.00519
CTGTACGA	0.383
AGTGTGAG	-0.0581
ATTGGCGA	-0.0946
GTTTAGGA	-0.194
AAGGGTCT	-0.19
ACCAGTAG	-0.0228

5 entries picked at random from those above, as already listed:
Sequence	PBM E-score
CGCCACCG	-0.0617
GGCGTAGA	-0.107
ACCAGTAG	-0.0228
AGTGTGAG	-0.0581
CCCTACGG	0.185

Continued:

Sequence	PBM E-score
CTTGGATA	-0.0809
AATCACCT	0.185
AGAGCGGA	-0.0903
CCTCTAAA	-0.225
AGCATCTC	-0.0427
ACAATGCC	-0.0597
GCCTTGCA	-0.00308
ATAAAGGG	-0.0362
AGCAGAGC	-0.258
AGGACGTC	0.0509
GTCCCTAA	0.0908
CTCGCAAA	-0.126
GACTGTAC	0.151
ACCCTCTC	-0.224
CACCATCG	-0.0531
GCACAAAA	0.0917
ATAACCCG	-0.108
CATTACGA	0.128
AACGATAA	0.294
CCTGGGAA	0.0284
